The target in the test is T1, MBP-SYCP1N (amino-acids 1-362) (UniProt Q15431).
T1 sequence: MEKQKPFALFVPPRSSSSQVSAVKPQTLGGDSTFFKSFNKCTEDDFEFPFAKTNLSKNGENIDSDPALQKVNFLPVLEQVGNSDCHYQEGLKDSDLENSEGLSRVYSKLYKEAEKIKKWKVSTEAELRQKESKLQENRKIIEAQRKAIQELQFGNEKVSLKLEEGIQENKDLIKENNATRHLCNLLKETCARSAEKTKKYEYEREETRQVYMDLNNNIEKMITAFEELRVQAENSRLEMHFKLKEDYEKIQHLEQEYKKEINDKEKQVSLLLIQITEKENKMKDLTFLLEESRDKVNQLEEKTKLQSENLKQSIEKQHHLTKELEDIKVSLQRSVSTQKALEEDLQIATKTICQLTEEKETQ
In words: condition: three-fold molar excess with respect to MBP-SYCP1N.

No constants are given. Whether binding was seen depends on the method and setting. Sequences can lack the tags named with a protein.

For SYCE1-SIX6OS1 complex, the binding result is on record as “no binding”.

These data come from doi:10.1101/2022.04.14.488335.
